Results of single-concentration screens

Data taken from ChEMBL document CHEMBL3988442, “University of Dundee, Small-Polar-MMV Screening Library” (2021).

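Phenotypic screen: M. tuberculosis growth, glucose 7H9 medium, 3 days; the read-out is not stated. Concentration: 500 µM. Direction is inferred from retests: higher values go with more growth inhibition. Size under these conditions: about 18,000 compounds, about 1,400 of them at 50% or above in at least one test.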

The filed quantity is “Percent Effect” (%). How 0% and 100% were set is not recorded. Most values in the screen are low, and negative values occur. This is an unselected part of the compounds tested.

Compound	Percent Effect
O=C(NC1CC1)c1cccc(CNc2ccccn2)c1	62.27%
CCn1cc(S(=O)(=O)NCc2cccnc2)cn1	13.4%
NCCc1ncc(-c2ccccc2)[nH]1	47.56%
CCOC(=O)N1CCC(N2CCN(CCO)CC2)CC1	3.766%
Cn1nc2n(c1=O)CCN(S(C)(=O)=O)CC2	-4.857%
O=C(NC1CN(C(=O)c2cccc(Br)c2F)C1)C1CC1	20.7%
CS(=O)(=O)N1CCC(O)c2ccccc21 (stereo unspecified)	14.87%
O=C(CCc1cccnc1)N1CC(N2CCOCC2)C1	9.728%
CC(Cc1cccs1)C(=O)NC(C)(CO)CO (stereo unspecified)	14.16%
CCOC(=O)N(C)C1CCNCC1	-1.733%
O=C(NC1CCCOC1)c1ccc2c(c1)OCCO2 (stereo unspecified)	9.46%
COc1ccc(NC(=O)c2cncc(C)c2)cc1CO	21.68%
CC(N[C@H](CO)C(C)C)c1cncc(F)c1 (stereo partly specified)	-6.526%
c1csc(CSCCNC2=NCCN2)c1	54.98%
CNC(=O)NC(=O)CN(C)CCCOc1ccccc1	-15.19%
CC(C)n1cc(S(=O)(=O)N2CCC3(CCOC3)C2)cn1 (stereo unspecified)	29.55%
CC(C)c1cc(C(=O)N[C@@H]2CCOC[C@H]2O)no1	10.77%
CCCn1cnnc1CNCC(=O)Nc1cnccn1	1.128%
NCC1(c2ccc(F)cc2)CCOCC1	9.399%
CN(C)CCC1CN(C(=O)CCc2cccs2)CCO1 (stereo unspecified)	18.46%
Cc1nccc(NCC(=O)NCc2ccco2)c1Cl	33.67%
Cc1cccnc1CC(C)NC(=O)c1cnco1 (stereo unspecified)	25.52%
OC1(c2ccccc2)CCCNC1 (stereo unspecified)	-11.54%
COCCNC(C)(CO)C1CCCCC1 (stereo unspecified)	1.696%
COc1ccc(F)c(F)c1C(=O)NC1CCCNC1=O (stereo unspecified)	-2.822%
O=C(NC1CCCCC1)C1CCOCC1	27.44%
Cc1noc(C)c1CN1CCC(CC(N)=O)CC1	1.604%
Cc1cnc(C(=O)N(Cc2cnn(C)c2)C2CC2)cn1	2.139%
O=C(NCc1ccon1)c1ccc(Br)c(O)c1	-4.605%
O=C(Cc1c(F)cccc1F)Nc1cnccc1CO	8.228%
COCC(O)CN(C)C(=O)Cc1cc(Cl)ccc1Cl (stereo unspecified)	17.36%
COc1ccc(CCCC(=O)N2CCC(CN)C2)cc1 (stereo unspecified)	73.47%
O=C(Cn1ccnn1)Nc1ccncc1F	-3.813%
O=C(NC1CCN(C2CCOCC2)CC1)c1cnc[nH]1	9.015%
O=C(CCc1ccccn1)Nc1ccc2[nH]nnc2c1	6.956%
O[C@H]1C[C@@H](N2CCCC2)C1	-3.253%
CN(C)C(=O)Cc1ccc(NC(=O)C2CC2)cc1	28.12%
CN1CCCC(CNC(=O)N2CCSC(C)(C)C2)C1 (stereo unspecified)	15.81%
Cc1ncc(CN2CCn3ccnc3C2)s1	-5.521%
O=C(NCCN1CCCS1(=O)=O)C1CCC1	1.757%
CCc1ccc(C(=O)CSc2nnc(N)[nH]2)cc1	40.45%
CC(=O)NC(C)C(=O)Nc1ccc2ccccc2c1 (stereo unspecified)	8.211%
Cc1ccccc1NC(=O)CCN1CCC(CCO)C1 (stereo unspecified)	9.442%
COc1ccc(OCCCS(N)(=O)=O)cc1	21.91%
COc1ccc(NC(=O)CC2COCCN2)c(C)c1 (stereo unspecified)	-23.56%
CSC(C)(C)CNC(=O)NC1CCCS(=O)(=O)C1 (stereo unspecified)	5.307%
CC(CCN(C)C)NC(=O)Nc1ccc(N(C)C)nc1 (stereo unspecified)	-6.366%
CCOCCN1CCN(C(=O)CN2CCCC2)CC1	-18.88%
CCCn1cc(CNC(=O)C2CCOC2)cn1 (stereo unspecified)	2.334%
CC(=O)Nc1nc(C(=O)NCc2ccc(C)s2)cs1	72%
CNS(=O)(=O)CC1CCCN1c1ncc(Br)cn1 (stereo unspecified)	60.9%
CC(C)(C)C(=O)Nc1cccc(N2CCCC2=O)c1	10.52%
Cc1ccc(NC(=O)CN(C)C(=O)C(C)C)cc1	34.03%
CC(C)N1CCN(C(C)C(=O)NC2CC2)CC1 (stereo unspecified)	-0.7931%
O=C(c1cscn1)N1CCOC(C(F)F)C1 (stereo unspecified)	0.4419%
CNC1CCN(C(=O)Cc2cc(F)ccc2F)CC1	11.3%
Cc1cnccc1NCCn1ccnc1-c1ncc[nH]1	8.444%
Nc1ncccc1CN1C[C@@H]2CCC[C@H](C1)C(=O)N2	24.29%
NCCC(=O)NC1CCS(=O)(=O)C1 (stereo unspecified)	6.35%
Nc1ncnc(N2CCC(CO)CC2)c1Cl	4.005%
Cc1cc(CN)nc(N2CCCC2)n1	-9.604%

The last 4 entries again:

Compound	Percent Effect
Nc1ncccc1CN1C[C@@H]2CCC[C@H](C1)C(=O)N2	24.29%
NCCC(=O)NC1CCS(=O)(=O)C1 (stereo unspecified)	6.35%
Nc1ncnc(N2CCC(CO)CC2)c1Cl	4.005%
Cc1cc(CN)nc(N2CCCC2)n1	-9.604%